Values of other authors, collected in PMC2483489 (Acta Crystallographica Section D: Biological Crystallography, 2006).

Experiments:
[1] = tested on: Thr315Ile Abl; settings: read-out: IC50 for Thr315Ile; ref Cowan-Jacob et al., 2004
[2] = tested on: Glu255Lys; settings: read-out: IC50 for Glu255Lys; ref Cowan-Jacob et al., 2004
[3] = tested on: Tyr253His; settings: read-out: IC50 for Tyr253His; ref Cowan-Jacob et al., 2004
[4] = tested on: Gly250Glu; settings: read-out: IC50 for Gly250Glu; ref Cowan-Jacob et al., 2004

IC50 [1]: > 10 µM | IC50 [2]: 6.7 µM | IC50 [3]: > 10 µM | IC50 [4]: 3 µM
Structure (SMILES): Cc1ccc(NC(=O)c2ccc(CN3CCN(C)CC3)cc2)cc1Nc1nccc(-c2cccnc2)n1 [Imatinib, imatinib]
